According to PubChem BioAssay AID504847 (National Center for Advancing Translational Sciences (NCATS), 2011):
Hit rate of the full screen: of about 400,000 compounds, about 3,700 (0.93%) were called active. Inconclusive results, whose numbers are uncertain, are shown with a selection of clear calls. Calls follow the shape of the dose curve; as a rule, active = well fitted inhibition curve with a large enough effect; inconclusive = small, poorly fitted or top-dose-only effect, or another doubt; inactive = no such curve, though single readings can be large or run the other way. A potency beside an inconclusive call is a rough fit, not a confirmed value.

Protein sequences, listed by entry. Tags and fused reporters are not part of them. Lines headed by an entry give the natural chain unless they say otherwise; changes in a name come on top.
UniProt P11473: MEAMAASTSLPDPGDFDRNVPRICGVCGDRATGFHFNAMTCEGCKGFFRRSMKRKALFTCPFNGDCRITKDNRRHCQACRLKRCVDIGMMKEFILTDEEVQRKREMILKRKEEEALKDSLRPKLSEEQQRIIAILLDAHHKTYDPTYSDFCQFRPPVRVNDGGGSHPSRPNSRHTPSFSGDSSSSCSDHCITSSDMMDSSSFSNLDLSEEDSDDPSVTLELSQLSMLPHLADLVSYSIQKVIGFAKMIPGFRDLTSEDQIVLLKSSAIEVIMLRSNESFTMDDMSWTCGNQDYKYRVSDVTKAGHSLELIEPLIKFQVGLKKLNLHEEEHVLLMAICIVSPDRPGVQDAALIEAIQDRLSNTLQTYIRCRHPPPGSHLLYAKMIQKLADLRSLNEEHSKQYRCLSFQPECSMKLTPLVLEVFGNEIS

These molecules were tested against Vitamin D3 receptor (Homo sapiens) (UniProt P11473) (assay: Inhibitors of the vitamin D receptor (VDR): qHTS). Settings: VDR-SRC2-3 peptide fluorescence polarization, 2 h; max response, negative = inhibition: stronger effect = lower value.
Outline: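 Two reagent solutions held at 4 deg C in the dark were dispensed, compounds pinned at 23 nl, and the mixture incubated 2 h at room temperature. Read-out: fluorescence polarization of VDR–SRC2-3 peptide binding.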
% is scaled to controls: 0 for no effect and ±100 for the full control effect; potency is read from the fitted curve at half-maximal effect.

Row | SMILES | Potency | max response, negative = inhibition
1 | CC(=O)C1(C)CCC2C3C=C(C)C4=CC(=O)CCC4(C)C3CCC21C (centres undefined) | inconclusive: 89.1 µM [inhibitor, single point] | –
2 | CC(Oc1ccc(Cl)cc1)c1ccc(C#N)c(=O)[nH]1 (centres undefined) | – | inactive: -10.1%
3 | COc1ccccc1-c1cncnc1NCc1cccnc1 | inconclusive: 44.7 µM [inhibitor, partial curve, poor fit] | –
4 | COc1ccccc1NC1=C(Cl)C(=O)OC1OC(=O)c1ccco1 (centres undefined) | – | inactive: 4.75%
5 | COc1ccc(C2C3C=CCC(C)C3C(=O)N2Cc2ccccc2)cc1Cl (centres undefined) | inconclusive: 100 µM [inhibitor, single point] | –
6 | CNc1nc(-c2ccc(N(C)C)cc2)nc2ccccc12 | inconclusive: 79.4 µM [inhibitor, partial curve, poor fit] | –
7 | COc1ccc(-n2nc3c(c2NC(=O)C2CCCC2)CS(=O)C3)cc1 (centres undefined) | – | inactive: -18.9%
8 | O=C(O)CCCNC(=O)c1cncc(Br)c1 | – | inactive: 6.1%
9 | O=S(=O)(c1ccccc1)c1nc(-c2ccccc2)oc1N1CCCCC1 | inconclusive: 79.4 µM [inhibitor, single point] | –
10 | CC[C@H](C)[C@H](NC(=O)[C@H](Cc1ccc(O)cc1)NC(=O)[C@@H]1CCCN1C(=O)[C@@H](NC(=O)[C@@H](N)CCCCN)[C@@H](C)CC)C(=O)N[C@@H](CC(C)C)C(=O)O | – | inactive: 13%
11 | CCN(CCO)c1ccc(NC(=S)Nc2cccc(S(=O)(=O)N(C)C)c2)cc1 | inconclusive: 39.8 µM [inhibitor, single point] | –
12 | N/C(=N\OCC(=O)Nc1ccc(F)c(Cl)c1)c1ccccc1 | – | inactive: -18.3%
13 | CCOC(=O)c1c(C)[nH]c(C2=NNC(=Nc3ccccc3)SC2)c1C | inconclusive: 44.7 µM [inhibitor, partial curve] | –
14 | CCSc1nnc(NC(=O)Cn2cnc3ccccc3c2=O)s1 | – | inactive: -29.5%
15 | O=c1cc(C=NNc2ccccc2)[nH]c(=O)[nH]1 | inconclusive: 70.8 µM [inhibitor, single point] | –
16 | Cc1nnc(SCC(=O)Nc2ccc3c(c2)OCCO3)n1CC1CCCO1 (centres undefined) | – | inactive: -17.3%
17 | O=C(Cn1nc(-c2ccc(Cl)cc2)c2ccccc2c1=O)Nc1cccc(C(F)(F)F)c1 | inconclusive: 89.1 µM [inhibitor, single point] | –
18 | CN(C)C(=O)c1ccc(-c2cc(NCc3ccccc3)ncn2)cc1 | inconclusive: 44.7 µM [inhibitor, partial curve] | –
19 | CCN(C(=O)CSc1nc2cc(Cl)ccc2c(=O)n1CC(C)C)C1CCS(=O)(=O)C1 (centres undefined) | inconclusive: 79.4 µM [inhibitor, single point] | –
20 | CCn1c(CNC(=O)c2ccc(OC)c(OC)c2)nnc1SCC(=O)c1ccc(OC)cc1 | – | inactive: -15.6%
21 | O=C(/C=C/c1ccco1)Nc1nc(-c2ccccn2)cs1 | inconclusive: 89.1 µM [inhibitor, single point] | –
22 | c1ccc(CSc2ncnc3sccc23)cc1 | – | inactive: 13.3%
23 | CCOc1cc(CNCCCN2CCOCC2)cc(Br)c1OCc1ccccc1Cl | – | inactive: -6.71%

Rewritten as tab-separated lines: entries from further up
Row	SMILES	Potency	max response, negative = inhibition
1	CC(=O)C1(C)CCC2C3C=C(C)C4=CC(=O)CCC4(C)C3CCC21C (centres undefined)	inconclusive: 89.1 µM [inhibitor, single point]	–
2	CC(Oc1ccc(Cl)cc1)c1ccc(C#N)c(=O)[nH]1 (centres undefined)	–	inactive: -10.1%
6	CNc1nc(-c2ccc(N(C)C)cc2)nc2ccccc12	inconclusive: 79.4 µM [inhibitor, partial curve, poor fit]	–
15	O=c1cc(C=NNc2ccccc2)[nH]c(=O)[nH]1	inconclusive: 70.8 µM [inhibitor, single point]	–
17	O=C(Cn1nc(-c2ccc(Cl)cc2)c2ccccc2c1=O)Nc1cccc(C(F)(F)F)c1	inconclusive: 89.1 µM [inhibitor, single point]	–
23	CCOc1cc(CNCCCN2CCOCC2)cc(Br)c1OCc1ccccc1Cl	–	inactive: -6.71%

Next entries follow.

Row | SMILES | Potency | max response, negative = inhibition
24 | COc1ccccc1OCCOc1ccc(/C=C2\C(=N)N3N=C(S(C)(=O)=O)SC3=NC2=O)cc1 | active: 79.4 µM | –
25 | Cc1ccc(-n2ncc3c(N4CCCC4)ncnc32)c(C)c1 | – | inactive: -3.1%
26 | CC(=O)C(=Cc1cn(-c2ccccc2)nc1-c1ccccc1)C(C)=O | inconclusive: 56.2 µM [inhibitor, partial curve, poor fit] | –
27 | Cc1c(C(=O)O)sc(S(=O)(=O)N2CCN(C(=O)Cc3ccc(F)cc3)CC2)c1C(=O)O | inconclusive: 89.1 µM [inhibitor, single point] | –
28 | CCOC(=O)C1CCCN(C2CC(=O)N(c3ccc(N4C(=O)CC(N5CCCC(C(=O)OCC)C5)C4=O)cc3)C2=O)C1 (centres undefined) | – | inactive: -4.68%
29 | Cn1nc(C(F)(F)F)c(-c2ccc(F)cc2)c1NC(=O)c1cccnc1 | inconclusive: 39.8 µM [inhibitor, partial curve, poor fit] | –
30 | CC1CCN(C(=O)/C(=C\c2ccco2)NC(=O)c2ccccc2)CC1 | – | inactive: 7.98%
31 | COc1cccc(C=CC(=O)C=CC=Cc2ccccc2)c1 | inconclusive: 14.1 µM [inhibitor, partial curve, poor fit] | –
32 | CCOC(=O)N1C2C=C(C)[C@@H]2[C@@H]2CC(=O)N21 (some centres undefined) | inconclusive: 79.4 µM [inhibitor, single point] | –
33 | CCCC(=O)OCCNc1cc(SCc2ccco2)c2nonc2c1[N+](=O)[O-] | inconclusive: 79.4 µM [inhibitor, single point] | –
34 | O=C(CN1C(=O)NC(c2ccccc2)(c2ccccc2)C1=O)NCc1cccs1 | inconclusive: 79.4 µM [inhibitor, partial curve, poor fit] | –
35 | Cc1ccc(S(=O)(=O)NCCCNS(C)(=O)=O)cc1 | – | inactive: 11.4%
36 | O=[N+]([O-])c1ccc2nc(SCc3ccccc3Cl)sc2c1 | – | inactive: 9.16%
37 | Fc1ccccc1NC(=S)Nn1cnnc1 | inconclusive: 56.2 µM [inhibitor, partial curve, poor fit] | –
38 | C=CCOc1ccc(/C=C\c2nc(O)c([N+](=O)[O-])c(=O)[nH]2)cc1OC | inconclusive: 100 µM [inhibitor, partial curve, poor fit] | –
39 | COc1cc(C(c2c(C)[nH][nH]c2=O)c2c(C)[nH][nH]c2=O)ccc1OC(C)C | inconclusive: 89.1 µM [inhibitor, single point] | –
40 | Cc1cccc(-c2noc(Cc3ccc(Cl)cc3)n2)c1 | inconclusive: 89.1 µM [inhibitor, single point] | –
41 | N/C(=N\OC(=O)/C=C/c1ccccc1)c1ccccc1 | – | inactive: 11.7%
42 | Cc1ccc(OCCNCc2ccccc2)c(C)c1 | – | inactive: -5.64%
43 | Cc1nc(SCC(=O)c2ccccc2)n[nH]1 | active: 50.1 µM | –
44 | COc1ccccc1N(CC(=O)N/N=C/c1ccc(OCC(=O)NCc2ccco2)cc1)S(=O)(=O)c1ccc(C)cc1 | inconclusive: 35.5 µM [inhibitor, partial curve, poor fit] | –
45 | Cc1ccc(NC(=O)Cn2cccc2)cc1C | – | inactive: -12.7%
46 | CC(=O)c1cc(NC(=O)c2cccc(C(F)(F)F)c2)c(=O)oc1C | inconclusive: 31.6 µM [inhibitor, single point] | –

Row | SMILES | Potency | max response, negative = inhibition
47 | O=C(O)CN1C(=O)/C(=C/c2ccc(SCc3ccccc3)o2)SC1=S | inconclusive: 100 µM [inhibitor, single point] | –
48 | CC(=O)N1CCC2(CCCN(C(c3ccccc3)c3ccccc3)C2)CC1 | inconclusive: 56.2 µM [inhibitor, partial curve, poor fit] | –
49 | Nc1ccn(CC(=O)N2CCN(c3ccccn3)CC2)c(=O)n1 | inconclusive: 44.7 µM [inhibitor, partial curve, poor fit] | –
50 | CC(=O)N1CCN(c2ccccc2NC(=O)COc2cc(C)cc(C)c2)CC1 | inconclusive: 89.1 µM [inhibitor, single point] | –
51 | CC(C)CN1CCC(=O)N([C@H](CSc2ccc(Br)cc2)Cc2ccccc2)CC1 | inconclusive: 89.1 µM [inhibitor, partial curve, poor fit] | –
52 | CCOc1cc(Br)c(C=O)cc1OCC | – | inactive: -21.6%
53 | COc1ccc(OC)c(-n2c(=S)[nH]c3c(sc(=S)n3-c3ccccc3C)c2=O)c1 | inconclusive: 89.1 µM [inhibitor, single point] | –
54 | O=C1Nc2ccc(I)cc2/C1=C/c1cc(Br)c(O)c(Br)c1 | active: 25.1 µM | –
55 | COc1ccc(C(=O)C(CN2CCOCC2)c2ccccc2)cc1F (centres undefined) | inconclusive: 89.1 µM [inhibitor, single point] | –
56 | O=C(NNc1ccccc1[N+](=O)[O-])Nc1ccc(F)cc1 | inconclusive: 56.2 µM [inhibitor, partial curve, poor fit] | –
57 | O=Nc1onc(-c2ccc([N+](=O)[O-])cc2)c1NO | inconclusive: 89.1 µM [inhibitor, single point] | –
58 | CCS(=O)(=O)N1CCN(CC2CC3C=CC2C3)CC1 (centres undefined) | – | inactive: -15.1%
59 | Cc1cccc(N2C(=O)C(O)=C(C(=O)c3cccs3)C2c2ccc(F)cc2)n1 (centres undefined) | – | inactive: -8.25%
60 | N#CC1=C(N)C(C#N)(C#N)[C@H](c2c(F)cccc2F)[C@H]2CC3(CC=C12)OCCO3 | inconclusive: 79.4 µM [inhibitor, partial curve] | –
61 | CN(C)c1nc(NCc2ccccc2)nc(N/N=C/c2cccc(Br)c2)n1 | inconclusive: 31.6 µM [inhibitor, single point] | –
62 | Cc1onc(-c2c(Cl)cccc2Cl)c1C(=O)Nc1ccc(N2CCOCC2)cc1 | – | inactive: 1.56%
63 | CC(OC(=O)CSc1ccc([N+](=O)[O-])cc1)C(=O)NCc1ccccc1 (centres undefined) | active: 79.4 µM | –
64 | O=C(NCc1cccnc1)/C(=C/c1ccc(-c2ccc(Cl)cc2)o1)S(=O)(=O)c1ccccc1 | active: 22.4 µM | –
65 | CNC(=O)c1c(NC(=O)c2ccc3ncsc3c2)sc(C)c1C | inconclusive: 79.4 µM [inhibitor, single point] | –
66 | COc1ccc(C(C)(C)C)cc1S(=O)(=O)n1ccnc1C | – | inactive: 12.8%
67 | O=C(NCCc1ccccc1)c1ccc(-c2ccccc2C(F)(F)F)o1 | inconclusive: 89.1 µM [inhibitor, partial curve] | –
68 | FC(F)(F)c1nc2cc3nc4ccccc4[nH]c3cc2n1 | inconclusive: 50.1 µM [inhibitor, partial curve] | –
69 | Cc1ccc(C)c(S(=O)(=O)N2CCN(C(=O)/C=C/c3ccco3)CC2)c1 | active: 89.1 µM | –
